Assay [1] has as its target BD-MYC2 (basic helix-loop-helix transcription factor MYC2 in pGBKT7) (Arabidopsis thaliana) (UniProt Q39204). Put plainly: two-hybrid; AD-ABF3 (pGADT7) and BD-MYC2 (pGBKT7) co-transformed into yeast AH109; growth on SD -LEU -TRP -HIS -ADE plates with 10 mM 3-AT, 30 °C.
Assay [2] has as its target MYC2-cYFP (Arabidopsis thaliana) (UniProt Q39204). Put plainly: split reporter; BiFC with nYFP (pXY106) and cYFP (pXY104) fusions co-transformed into Nicotiana benthamiana leaf epidermal cells; confocal microscopy after 48 hours.

Amino acid sequences for entries named in this document (tags omitted).
UniProt Q39204: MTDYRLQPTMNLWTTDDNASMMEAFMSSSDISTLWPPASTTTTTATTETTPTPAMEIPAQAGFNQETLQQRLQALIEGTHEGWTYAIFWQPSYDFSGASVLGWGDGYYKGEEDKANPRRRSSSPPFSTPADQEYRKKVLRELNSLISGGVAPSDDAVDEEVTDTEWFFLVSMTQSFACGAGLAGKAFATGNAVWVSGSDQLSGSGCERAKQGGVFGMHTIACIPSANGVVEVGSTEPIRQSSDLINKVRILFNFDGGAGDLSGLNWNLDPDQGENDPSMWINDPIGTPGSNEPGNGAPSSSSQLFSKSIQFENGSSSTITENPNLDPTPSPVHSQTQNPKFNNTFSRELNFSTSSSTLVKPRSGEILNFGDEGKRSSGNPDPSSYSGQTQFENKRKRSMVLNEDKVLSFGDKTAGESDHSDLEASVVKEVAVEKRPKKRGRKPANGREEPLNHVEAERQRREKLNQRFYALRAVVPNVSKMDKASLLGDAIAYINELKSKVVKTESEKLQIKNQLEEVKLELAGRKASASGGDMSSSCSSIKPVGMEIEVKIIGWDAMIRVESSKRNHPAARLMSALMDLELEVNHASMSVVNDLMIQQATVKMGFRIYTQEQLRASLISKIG

Results are given in words; binding and its absence hold for the method and conditions named. For some assays here: Binding seen in cells or lysates may run through a third protein. Some entries that bind do so weakly or less than the wild type. Tags and fused reporters may be left off the sequences shown.

B1: AD-ABF3 (ABA responsive elements-binding factor ABF3 in pGADT7) (protein, UniProt Q9M7Q3 1-454)
chain: MGSRLNFKSFVDGVSEQQPTVGTSLPLTRQNSVFSLTFDEFQNSWGGGIGKDFGSMNMDELLKNIWTAEESHSMMGNNTSYTNISNGNSGNTVINGGGNNIGGLAVGVGGESGGFFTGGSLQRQGSLTLPRTISQKRVDDVWKELMKEDDIGNGVVNGGTSGIPQRQQTLGEMTLEEFLVRAGVVREEPQPVESVTNFNGGFYGFGSNGGLGTASNGFVANQPQDLSGNGVAVRQDLLTAQTQPLQMQQPQMVQQPQMVQQPQQLIQTQERPFPKQTTIAFSNTVDVVNRSQPATQCQEVKPSILGIHNHPMNNNLLQAVDFKTGVTVAAVSPGSQMSPDLTPKSALDASLSPVPYMFGRVRKTGAVLEKVIERRQKRMIKNRESAARSRARKQAYTMELEAEIAQLKELNEELQKKQVEIMEKQKNQLLEPLRQPWGMGCKRQCLRRTLTGPW
Consider B1, for which the binding result in assay [1] is “binds”.

B2: nYFP-ABF3 (protein, UniProt Q9M7Q3 1-454)
chain: B1 chain
Regarding B2, in assay [2], the binding entry is recorded as “binds”.

Source of the values: publication PMC6136374.
